{"source": "PubChem BioAssay AID1259254 (NCATS, 2017)", "aim": "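Gene knock-downs that lead to re-replication, shown by excess G2 DNA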 (primary screen)", "system": "human HCT116 colorectal cancer cells", "reagents": "single siRNA against human genes", "timing": "3 days", "measured": "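Nuclei stained with Hoechst and imaged; cell-cycle phase assigned by DNA content; G2 share scaled per plate, non-targeting siRNA 0%, GMNN siRNA 100%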", "direction": "G2 robust z-score: higher = more G2 cells, more excess DNA replication", "call rule": "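An siRNA counts as active if its G2 robust z-score lies at least 5 MADs above the screen median; here such calls match roughly 38% of GMNN control or more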", "note": "In all, the deposit lists about 59,000 reagents; this is a part drawn at random. About 1,550 of all reagents (2.6%) were called active. 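G2 share is only a proxy for re-replication; each gene was hit by three separate siRNAs, and active genes were retested.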 Entries without a mark were called inactive. The numbers tell different reagents against one gene apart. Further read-outs or replicates are left out here. The record does not give: the amount of reagent."}
The opening 2 entries as a preview:
{"target gene":"TNNI1 (troponin I1, slow skeletal type)","reagent":1,"G2 robust z-score":-1.12}
{"target gene":"TNNI1 (troponin I1, slow skeletal type)","reagent":2,"G2 robust z-score":0.0248}

Main list, from the start:
{"target gene":"TNNI1 (troponin I1, slow skeletal type)","reagent":1,"G2 robust z-score":-1.12}
{"target gene":"TNNI1 (troponin I1, slow skeletal type)","reagent":2,"G2 robust z-score":0.0248}
{"target gene":"TNNI1 (troponin I1, slow skeletal type)","reagent":3,"G2 robust z-score":-0.213}
{"target gene":"LINC01530 (long independently transcribed non-coding RNA 1530)","reagent":1,"G2 robust z-score":-0.771}
{"target gene":"LINC01530 (long independently transcribed non-coding RNA 1530)","reagent":2,"G2 robust z-score":-0.129}
{"target gene":"LINC01530 (long independently transcribed non-coding RNA 1530)","reagent":3,"G2 robust z-score":4.15}
{"target gene":"RNF133 (ring finger protein 133)","reagent":1,"G2 robust z-score":3.88}
{"target gene":"RNF133 (ring finger protein 133)","reagent":2,"G2 robust z-score":0.942}
{"target gene":"RNF133 (ring finger protein 133)","reagent":3,"G2 robust z-score":-0.6}
{"target gene":"ZNF490 (zinc finger protein 490)","reagent":1,"G2 robust z-score":-0.61}
{"target gene":"ZNF490 (zinc finger protein 490)","reagent":2,"G2 robust z-score":-0.232}
{"target gene":"ZNF490 (zinc finger protein 490)","reagent":3,"G2 robust z-score":-0.0883}
{"target gene":"MSX2 (msh homeobox 2)","reagent":1,"G2 robust z-score":1.36}
{"target gene":"MSX2 (msh homeobox 2)","reagent":2,"G2 robust z-score":-0.981}
{"target gene":"MSX2 (msh homeobox 2)","reagent":3,"G2 robust z-score":0.347}
{"target gene":"METTL2B (methyltransferase 2B, tRNA N3-cytidine)","reagent":1,"G2 robust z-score":0.748}
{"target gene":"METTL2B (methyltransferase 2B, tRNA N3-cytidine)","reagent":2,"G2 robust z-score":-1.18}
{"target gene":"METTL2B (methyltransferase 2B, tRNA N3-cytidine)","reagent":3,"G2 robust z-score":-0.167}
